Test results: patent US20220184082A1, “CANCER THERAPY USING 3,5-DISUBSTITUTED BENZENE ALKYNYL COMPOUND AND PEMBROLIZUMAB” (TAIHO PHARMACEUTICAL CO., LTD., priority 2019, published 2022)

Test system: mouse breast cancer cell line 4T1
Conditions: 4T1-implanted BALB/cAJcl mouse; oral daily 14 days, 15 or 30 mg/kg/day; Day 15; Student's t-test P<0.01

## C=CC(=O)N1CC[C@H](n2nc(C#Cc3cc(OC)cc(OC)c3)c3c(N)ncnc32)C1 [compound 1, (S)-1-(3-(4-amino-3-((3,5-dimethoxyphenyl)ethynyl)-1H-pyrazolo[3,4-d]pyrimidin-1-yl)pyrrolidin-1-yl)prop-2-en-1-one]
  MDSCs (CD11b+/Gr-1+ cells) in the spleen lymphocyte fractions compared with non-drug administration control: significant reduction
